Measurements published in PubChem BioAssay AID1296 (Columbia University Molecular Screening Center, 2008).
The campaign covered roughly 130,000 compounds. About 1,000 (0.77%) were called active. This list was built around the results that the source calls inconclusive (neither active nor inactive); the mix of calls is not that of the screen.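 How the source made its calls: active means activation at 2 µM above a set limit, confirmed on inspection of the cell images; inconclusive means above the set limit but not confirmed on image inspection; inactive means the rest.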

Test: activators of insulin promoter-driven GFP, primary screen, imaging, TRM-6 cells (human fetal islet line), eGFP reporter, cell count (AID 1296;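 further: share of cells whose green reporter signal exceeds an intensity cutoff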)
Conditions: at 2 µM, active compounds read high, plate-scaled: unstimulated 0, stimulated control 100
Outline: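 Test system: TRM-6 insulin promoter–eGFP reporter cells / Quantity: 1,000 cells per well / Reagent: tamoxifen inducer, 0.75 µM, in seeding medium / Compound dosing: 2 µM final, single concentration / Schedule: overnight tamoxifen, then two-day compound incubation at 37 °C / Measured by: automated fluorescence imaging of paraformaldehyde-fixed, Hoechst-counterstained cells, green channel / Read-out: percent activation from GFP-positive cell fraction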

Row | Structure (SMILES) | activation
1 | Cc1cccc(OCCCCc2c(C)n[nH]c2C)c1C | inactive: 0%
2 | O=P(OC1CCCCC1)(OC1CCCCC1)C(O)c1ccccc1 (centres undefined) | active: 104%
3 | O=S(=O)(Cc1ccccc1Cl)CC(O)COc1ccccc1Cl (centres undefined) | inconclusive: 400%
4 | COCc1nnc(NC(=O)CC(C)C)s1 | inconclusive: 488%
5 | O=C1N=C2N(CCN3CCCCC3)c3ccccc3N2/C1=C\c1ccc([N+](=O)[O-])o1 | inconclusive: 388%
6 | COc1ccc(C(C)C)cc1S(=O)(=O)n1cnc(C)c1 | inactive: -3.85%
7 | O=C(CSc1nnc(-c2ccncc2)o1)Oc1ccccc1 | active: 690%
8 | N#Cc1c(N2CCN(C(=O)c3ccccc3)CC2)nc(-c2ccccc2)c2c1CCCC2 | active: 79.3%
9 | O=[N+]([O-])c1ccc(NCCNCCOc2nonc2-c2ccccc2)c([N+](=O)[O-])c1 | inactive: 5.56%
10 | O=C(CSCc1ccc(Cl)cc1)NCC1CCCO1 (centres undefined) | inactive: 9.09%
11 | COc1ccc(Cc2nnc(SCc3nc4ccccc4c(=O)[nH]3)o2)cc1 | inconclusive: 407%
12 | OCc1nc2ccccc2n1CC(O)Cn1ccc2ccccc21 (centres undefined) | active: 90.9%
13 | O=C(OCn1ncc(Br)c(Br)c1=O)c1ccc(F)cc1 | inconclusive: 186% [cytotoxic]
14 | O=C(O)c1ccc(N(c2ccccc2)c2ccccc2)cc1 | inconclusive: 500%
15 | OCCN1CCN(c2cc(-c3ccccc3)c3ccccc3n2)CC1 | inactive: 5.41%
16 | O=C(c1ccc(S(=O)(=O)c2ccccc2)cc1)N1CCc2ccccc2C1 | inactive: 5.56%
17 | O=C(c1cccnc1)N1CCN(C(=O)c2cccs2)CC1 | active: 456%
18 | Nc1ccccc1Nc1cc(-c2ccccc2)nn1-c1cccc(Cl)c1 | inconclusive: 218%
19 | Cc1cc(N2CCN(C)CC2)nc(N2CCOCC2)n1 | inconclusive: 88.6%
20 | COC(=O)C1=C(C)N(CCc2c[nH]c3ccccc23)C(=O)/C1=C\N(C)C | active: 409%
21 | Cc1cc(N/C=C/C(=O)c2ccc(Br)cc2)no1 | inconclusive: 450%
22 | COc1ccc(N(C(=O)C(C)C)S(=O)(=O)c2ccc3c(c2)n(C)c(=O)n3C)cc1 | inactive: 253%
23 | COc1cc(C(=O)OCC(=O)N(C)C)cc(NC(=O)c2ccco2)c1OC | inactive: 6.67%
24 | COc1ccc(/C=C2/C(=O)N=C3SCCN32)cc1 | inactive: 2.86%

Row | Structure (SMILES) | activation
25 | Cc1cc(-n2nc(C)cc2C)n2nc(C)c(-c3ccc(Cl)cc3)c2n1 | inconclusive: 453%
26 | CC(C)C[C@@H](N)c1nnc(SCC(=O)c2ccc(Cl)cc2)o1 | active: 533%
27 | CC1(C)Cc2c(sc3ncnc(NNC(=S)NCc4ccccc4)c23)CO1 | inconclusive: 207%
28 | CC1(C)CC(=O)C(C=N)=C(O)C1 | inactive: 3.7%
29 | O=C1c2ccccc2-c2onc3ccc(N4CCCC4)c1c23 | inconclusive: 218%
30 | CCC(=O)Nc1ccc(Oc2ccc(NC(=O)CC)c(NC(=O)CC)c2)cc1 | inactive: -7.14%
31 | CC(C(=O)NC1=NCCS1)N1C(=O)C2CC=CCC2C1=O (centres undefined) | active: 121%
32 | CCOC(=O)N1CCN(C(=O)CCNS(=O)(=O)c2ccc3c(c2)c(=O)n(C)c(=O)n3C)CC1 | active: 293%
33 | CN(C)C/C(Cl)=C(\Cl)c1ccccc1 | inconclusive: 136%
34 | COc1ccc(NC(=O)CSc2nnc(-c3ccoc3C)n2CC2CCCO2)cc1 (centres undefined) | active: 506%
35 | O=C(CSCCO)N1CCc2ccccc21 | inconclusive: 450%
36 | CN(C)c1ccc(/C=C/C(=O)c2ccccc2O)cc1 | inconclusive: 164%
37 | CCN1/C(=C/C=C/c2oc3ccc(-c4ccccc4)cc3[n+]2CC)Oc2ccc(-c3ccccc3)cc21 | active: 809% [fluoresces]
38 | CCCSc1nnc(-c2ccccc2NC(=O)CC)c(=O)[nH]1 | inconclusive: 407%
39 | CCCC(=O)Nc1ccc(Cl)c(NC(=O)C(C)(C)C)c1 | active: 790%
40 | O=C(CN1C(=O)C2CC=CCC2C1=O)NC1CCCc2ccccc21 (centres undefined) | active: 83.1%
41 | O=C(CN1C(=O)c2ccccc2S1(=O)=O)NC1CCCC1 | inconclusive: 400%
42 | N#CC1CC(c2ccc([N+](=O)[O-])cc2)=NN1c1ccc([N+](=O)[O-])cc1 (centres undefined) | inconclusive: 173%
43 | Cc1ccc(C(=O)N/N=C\c2ccc[nH]2)cn1 | inconclusive: 75.9%
44 | CCN(CC)S(=O)(=O)c1cccc(-c2nnc(SCC(=O)NC3CCCCCCC3)n2N)c1 | inactive: -3.57%
45 | COC(=O)c1ccc(Oc2nc(Nc3ccccc3)nc(N(C)C)n2)cc1 | active: 585%
46 | CCCn1c(SCc2nc(-c3cccs3)no2)nnc1-c1ccncc1 | inconclusive: 411%
47 | COc1ccc(/C(N)=N/OC(=O)Cc2ccc(OC)c(OC)c2)cc1 | active: 210%
48 | COc1ccc(-c2nnn(Cc3ccccc3F)n2)cc1 | active: 521%

By substructure: the compounds so far with a thiophene ring, fused or not
Row | Structure (SMILES) | activation
17 | O=C(c1cccnc1)N1CCN(C(=O)c2cccs2)CC1 | active: 456%
27 | CC1(C)Cc2c(sc3ncnc(NNC(=S)NCc4ccccc4)c23)CO1 | inconclusive: 207%
46 | CCCn1c(SCc2nc(-c3cccs3)no2)nnc1-c1ccncc1 | inconclusive: 411%

The listing continues:

Row | Structure (SMILES) | activation
49 | COc1cc2c(C(=O)N3CCN(c4ccccc4C)CC3)c(C)oc2cc1Br | inconclusive: 121%
50 | CSc1nc2c(c(-c3ccccc3)c1C#N)CCC2 | active: 411%
51 | O=C(N/N=C/c1cccc([N+](=O)[O-])c1)c1cccc(Br)c1 | inconclusive: 88.2%
52 | CC[n+]1ccc(/C=C2\Sc3ccccc3N2CCCS(=O)(=O)[O-])c2ccccc21 | inconclusive: 392%
53 | CCn1c(/C=N/NC(=O)c2ccc(OC)cc2)nc2ccccc21 | inconclusive: 275%
54 | COc1ccc(/C=C2\SC(=O)NC2=S)cc1OC | inactive: 9.09%
55 | Cc1cc(-c2cccc([N+](=O)[O-])c2)nc2ccc3ccccc3c12 | inconclusive: 137%
56 | COC(=O)CC(c1ccc(C(C)C)cc1)n1cccc1 (centres undefined) | inactive: 6.67%
57 | Cn1c(=O)c(=O)n(C)c2cc(S(=O)(=O)N3CCN(c4cccc(C(F)(F)F)c4)CC3)ccc21 | inconclusive: 500%
58 | CCN1c2ccccc2NC2N=C(OC)C(c3ccccc3)C21 (centres undefined) | inconclusive: 136%
59 | Cc1nc(C#N)c(N/N=C/c2cccc(Cl)c2)o1 | active: 300%
60 | COc1ccc(S(=O)(=O)CC2(O)CCN(C(=O)C(C)(C)C)CC2)cc1 | inactive: 0%
61 | O=C(CSc1nc(-c2ccccc2)c(-c2ccccc2)[nH]1)NCc1ccco1 | inactive: 343%
62 | Cc1cccc(NC(=O)CSc2ccc(C(N)=O)cc2[N+](=O)[O-])c1C | inactive: -8.11%
63 | COc1ccc(Cl)cc1NC(=O)c1c(-c2ccccc2)noc1C | inconclusive: 473%
64 | COCCNC(=S)N/N=C(\C)c1ccccc1O | inconclusive: 331%
65 | CCOC(=O)Cn1nc(C)c(NC(=O)COc2cccc(Cl)c2)c1C | inactive: 0%
66 | CCn1c(CNc2ccc(Cl)cc2)nnc1SCc1ccc(Cl)cc1 | inconclusive: 444%
67 | COc1ccc(OC)c(S(=O)(=O)Nc2ccc(O)c(Sc3ncn[nH]3)c2)c1 | inconclusive: 81.1%
68 | Cc1cccc(N=Nc2ccc(O)c3ncccc23)c1 | inconclusive: 638% [cytotoxic]
69 | O=C(CCl)N(c1ccccc1)c1c[nH]c2ccccc12 | inconclusive: 92.3% [cytotoxic]
70 | CCn1c(SCC(=O)NC(=O)NC(C)(C)C)nc2ccccc21 | active: 129%
71 | COc1ccc(OC)c(S(=O)(=O)n2cnc3cc(C)c(C)cc32)c1 | inactive: -3.23%
72 | COc1ccccc1-c1nc(S(=O)(=O)c2ccc(Cl)cc2)c(N(C)C)o1 | active: 471%

Row | Structure (SMILES) | activation
73 | CCCN1C(=O)CN(C2CCCCCC2)C(=O)C1c1ccc(C)cc1 (centres undefined) | inconclusive: 230%
74 | CCCN1CCN(S(=O)(=O)c2ccc(OC)c(Br)c2)CC1 | inconclusive: 304%
75 | c1ccc(-n2ncc3c(NCc4ccc5c(c4)OCO5)ncnc32)cc1 | inconclusive: 406%
76 | O=C(CCc1nc2ccccc2[nH]c1=O)OCc1ccc(S(=O)(=O)N2CCOCC2)cc1 | inconclusive: 55.7%
77 | CCN(CC)C(=O)Cn1cc(SCC(=O)NCc2ccco2)c2ccccc21 | inconclusive: 152%
78 | O=C(Nc1nc(-c2ccccn2)cs1)c1ccc(Cl)s1 | inconclusive: 175%
79 | CN(C)c1ccc(C(=O)/C=C/c2ccco2)cc1 | inconclusive: 308%
80 | CCc1ccc(C(=O)COC(=O)CCc2nc3ccccc3c(=O)[nH]2)cc1 | inactive: 0%
81 | CN(CC(=O)Nc1ccc(S(=O)(=O)N2CCCC2)cc1)CC(=O)Nc1cccc(F)c1 | active: 220%
82 | COC(=O)C(C)(C(=O)OC)c1ccccc1[N+](=O)[O-] | inconclusive: 436%
83 | ClCc1csc(-c2ccccc2Cl)n1 | inconclusive: 227%
84 | O=C(CCCn1c(=S)[nH]c2ccc(Br)cc2c1=O)N1CCN(c2ccccn2)CC1 | inactive: -8.33%
85 | O=C(Nc1cccc(C(F)(F)F)c1)c1ccc2nc(N3C(=O)CCC3=O)sc2c1 | inconclusive: 233%
86 | CCCCn1c(O)c(/C=C/C=C/C=Nc2ccccc2)sc1=S | inconclusive: 225%
87 | O=C(CC1(O)C(=O)N(Cc2ccccc2)c2ccccc21)c1ccc2c(c1)OCO2 (centres undefined) | inconclusive: 436%
88 | COc1ccccc1C1CCCN1Cc1nc(-c2ccc(C)s2)oc1C (centres undefined) | inconclusive: 221%
89 | O=C(/C=C/c1ccccc1[N+](=O)[O-])NCCCn1ccnc1 | inconclusive: 426%
90 | O=C(Cn1c(SCC(=O)N2CCc3ccccc32)nc2ccccc21)NC1CCCC1 | inconclusive: 450%
91 | O=C(CN(Cc1cccs1)C(=O)c1csnn1)NC1CCCC1 | inconclusive: 414%
92 | CC(OC(=O)c1ccncc1)C(=O)Nc1cccc(Cl)c1 (centres undefined) | inactive: 7.14%
93 | c1ccc(-c2csc(Nc3cccnc3)n2)nc1 | inconclusive: 454%
94 | Nc1nc(N2CCN(C(=O)c3ccco3)CC2)nc2ccccc12 | inconclusive: 406%
